At least one compound was matched to its structure with a doubt left. Marks after values point to notes of the source that are not given here.
Tested on: hypothalamic creatine and phosphocreatine
Assay: Creatine assay (HPLC) of hypothalamic blocks
Assay type: in vivo, rat
Conditions: 48 hours after icv 0.4 umol/kg b.w., mean + SEM
Protocol: Hypothalamic blocks were rapidly dissected from animals treated icv with vehicle or CoPP at the indicated doses and snap-frozen in liquid nitrogen. They were stored at -80 degrees C. until they were crushed into a powder under liquid nitrogen and homogenized in 0.5 M PCA. Samples were then centrifuged at 4 degrees C. for 10 minutes at 15,000×g and the resulting supernatant neutralized with 1 M KOH. HPLC analysis was performed essentially as described. Samples were injected onto a Partisil 10 SAX analytical column which was eluted […] starting with Buffer A (0.01M H2PO4) and changing to Buffer B ([…]). The column was run on a Waters HPLC equipped with a Waters 996 Photodiode Array Detector and a Waters 717+ Auto Sampler. Both creatine and phosphocreatine standards were run with each sample set. Results are expressed as nanomoles per mg wet weight.

In the case of `C=Cc1c(C)c2cc3[nH]c(cc4nc(cc5nc(cc1[nH]2)C(C)=C5CCC(=O)[O-])C(CCC(=O)[O-])=C4C)c(C)c3C=C.[Co+2]` [CoPP, Cobaltic protoporphyrin IX], the Phosphocreatine (n = 10) is reported as 0.27** + 0.05 nmol/mg wet wt and the Creatine (n = 20) is reported as 9.80* + 0.50 nmol/mg wet wt.

Reference: US20090305225A1, “Inhibition of Creatine Uptake to Promote Weight Loss” (priority 2005, published 2009)
